Patent US20230201025A1, “PROCESS FOR FABRICATING A DENTAL APPLIANCE AND ACCOMPANYING USE CASES” (Bottmedical AG, priority 2020, published 2023)
Some results were stated once for a whole list of compounds, not compound by compound.

Test system: Streptococcus mutans
Assay: calorimetric measurement of suppression of bacterial growth (S. mutans)
Format: cell-based
Details: single essential oil component at 0.1% in BHI, listed as cinnamaldehyde
Protocol: Finally, additional calorimetric experiments were performed to measure the capability of different agents of suppressing the growth of bacteria such as Streptococcus mutans and Streptococcus mitis. The different agents 7 were applied as a solution containing a single essential oil component at a concentration of 0.1% in BHI. As figure of merits, the lag phase, defined as the postponement in time of the growth of the bacteria and measured in hours, and the growth rate (increase in number of bacteria/time), measured in J/h, of the Streptococcus populations were determined as follows: […]

## O=CC=Cc1ccccc1 [cinnam aldehyde, cinnamaldehyde]
  lag phase (h) of S. mutans growth: exceeding 24 h
